Results are given in words; binding and its absence hold for the method and conditions named. Binding seen in cells or lysates may run through a third protein. Here binding means that the protein was enriched with, or labelled near, the bait; the list need not be complete.
Target: T1, SHARPIN (Shank-associated RH domain interacting protein) (human (endogenous in A549)) (UniProt Q9H0F6)
T1 sequence: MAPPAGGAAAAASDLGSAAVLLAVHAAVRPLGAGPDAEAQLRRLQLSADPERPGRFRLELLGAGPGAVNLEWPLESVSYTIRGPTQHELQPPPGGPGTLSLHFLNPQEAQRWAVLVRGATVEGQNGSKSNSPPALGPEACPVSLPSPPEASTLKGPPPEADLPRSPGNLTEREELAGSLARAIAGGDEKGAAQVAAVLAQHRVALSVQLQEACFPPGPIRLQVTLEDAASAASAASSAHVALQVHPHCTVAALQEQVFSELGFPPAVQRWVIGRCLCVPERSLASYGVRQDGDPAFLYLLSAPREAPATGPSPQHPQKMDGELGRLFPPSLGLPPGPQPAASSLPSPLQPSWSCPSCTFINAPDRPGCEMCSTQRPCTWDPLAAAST
Assay: affinity purification with mass spectrometry; A549 lysate (150 mM NaCl, 50 mM Tris-HCl pH 7.5, 1% Triton X-100), immunoprecipitation with anti-SHARPIN antibody on protein A-agarose at 4°C overnight, no-antibody control, on-bead trypsin digestion, LC-MS/MS

Amino acid sequences for entries named in this document (tags omitted).
UniProt O14744: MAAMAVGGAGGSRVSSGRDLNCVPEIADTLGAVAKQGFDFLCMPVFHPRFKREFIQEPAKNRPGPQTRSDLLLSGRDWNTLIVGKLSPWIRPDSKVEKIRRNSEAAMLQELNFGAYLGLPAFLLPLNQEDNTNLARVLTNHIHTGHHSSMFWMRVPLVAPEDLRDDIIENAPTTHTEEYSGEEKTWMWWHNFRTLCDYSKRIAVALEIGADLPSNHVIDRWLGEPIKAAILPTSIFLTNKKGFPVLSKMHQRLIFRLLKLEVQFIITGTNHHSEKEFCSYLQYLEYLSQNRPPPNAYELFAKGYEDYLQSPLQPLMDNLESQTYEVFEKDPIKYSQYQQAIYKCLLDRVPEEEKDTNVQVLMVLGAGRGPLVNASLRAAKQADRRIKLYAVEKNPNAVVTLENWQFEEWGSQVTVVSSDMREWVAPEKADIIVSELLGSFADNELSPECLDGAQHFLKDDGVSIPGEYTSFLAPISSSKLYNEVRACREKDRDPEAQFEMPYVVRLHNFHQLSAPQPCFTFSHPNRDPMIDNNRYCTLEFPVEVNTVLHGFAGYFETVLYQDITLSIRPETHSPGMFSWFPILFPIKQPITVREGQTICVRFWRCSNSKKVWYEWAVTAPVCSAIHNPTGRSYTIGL

binding: binds
Substance: PRMT5 (Protein arginine methyltransferase 5) (from UniProt O14744 1-637) (enzyme)

Reference: PMC5589623
